In US5883287A, “Vinyl sulfide compounds and a process for their preparation” (Lumigen, Inc., priority 1997, dated 1999):
At least one structure is not confirmed: it was looked up by name or label, or the drawing left a doubt.

Assay: First order decay of chemiluminescence (base-induced decay) of hydroxyphenyl alkoxy or aryloxy dioxetanes in alkaline buffer
Assay type: physicochemical
Conditions: 37° C.; 0.2M 221 buffer, pH 9.6, 0.88 mM Mg+2, 1.0 mg/mL 1-trioctylphosphoniummethyl-4-tributylphosphoniummethylbenzene dichloride
Description: Comparison of Rates of Base-Induced Decay of Hydroxy-phenyl Alkoxy or Aryloxy Dioxetanes. The first order decay of chemiluminescence of dioxetanes 14-19 in 0.2M 2-methyl-2-amino-1-propanol (221) buffer, pH 9.6 containing 0.88 mM Mg^+2 and 1.0 mg/mL of 1-trioctylphosphoniummethyl-4-tributylphosphoniummethylbenzene dichloride was measured at 37° C. in a Turner Designs (Sunnyvale, Calif.) model TD-20e luminometer. The half-lives of decay of chemiluminescence (t1/2) of hydroxy-dioxetanes correlate with the times required to reach the maximum light intensity (Imax) in the alkaline phosphatase-triggered decomposition of the corresponding phosphate-dioxetanes under the same conditions. […] It is expected that, for example, the phosphate derivatives of dioxetanes 14-19 as well as others which can be produced by the process described herein will be useful in alkaline phosphatase-linkedassays known in the art.

SMILES: Oc1cccc(C2(OC(C(F)(F)F)C(F)(F)F)OOC23C2CC4CC(C2)CC3C4)c1 (stereo not shown) [Dioxetane 14, 4-(Hexafluoroisopropoxy)-4-(3-hydroxyphenyl)spiro[1,2-dioxetane-3,2'-tricyclo[3.3.1.1^3,7]decane]]
- t1/2 of decay of chemiluminescence: 9.6 s
